This is one part of the list.
What follows are sequences tested against T1, OsSMF1 (Oryza sativa, UniProt Q6ZLB0 1-436) (assay: protein-binding microarray (RPBM); PBS, 2% BSA, 51.3 ng/ul salmon testes DNA, 50 uM zinc acetate, 200 nM TF, 25 C, 1 h; high values mean tight binding). Conditions: protein: recombinant; tags: N-terminal polyhistidine and DsRed monomer fusion (pET32a); chain copies: 2; label: CyDye5-dUTP incorporated in the synthesized complementary strand; 3' TTTTT single-stranded linker to array surface; dsDNA, one strand shown.
T1 sequence: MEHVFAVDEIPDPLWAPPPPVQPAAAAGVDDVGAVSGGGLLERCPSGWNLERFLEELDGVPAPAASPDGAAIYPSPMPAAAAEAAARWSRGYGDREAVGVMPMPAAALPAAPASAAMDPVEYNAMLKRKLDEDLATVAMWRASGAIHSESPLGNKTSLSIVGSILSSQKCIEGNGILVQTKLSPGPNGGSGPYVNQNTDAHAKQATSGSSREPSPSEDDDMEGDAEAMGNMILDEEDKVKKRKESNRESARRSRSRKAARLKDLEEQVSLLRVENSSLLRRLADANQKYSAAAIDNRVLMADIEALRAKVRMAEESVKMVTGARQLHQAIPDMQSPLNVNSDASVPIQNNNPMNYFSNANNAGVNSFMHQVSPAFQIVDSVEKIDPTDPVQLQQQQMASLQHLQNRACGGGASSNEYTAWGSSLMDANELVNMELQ
How it was run: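 In PBS with 2% BSA, salmon testes DNA and 50 µM zinc acetate, 200 nM protein was incubated on a custom Agilent array at 25 °C for 1 h and then washed off. The array had been made double-stranded by primer extension with Cy5-dUTP and blocked with 2% BSA. The proteins were transcription factors fused N-terminally to polyhistidine and DsRed, expressed in E. coli BL21-CodonPlus and purified on Ni–NTA. The binding signal is per-feature fluorescence intensity (arbitrary units) from an Axon 4000B scanner.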

Sequence | binding signal
CTCTGATCTTGACATGACGTGACAACAACCACCAGGACATCGGAGTCACCTAGTGCAG | 5080 fluorescence intensity (a.u.)
AGTTCGTTTCGCTCCTCGCCACGCACCGCTTCGCAGCCGCCGGAGTCACCTAGTGCAG | 3970 fluorescence intensity (a.u.)
TCCCATCTTCGGTGACATCCTGTCTTTGCTTCTTAACTATCGGAGTCACCTAGTGCAG | 3750 fluorescence intensity (a.u.)
GGCAGGCAGCCCTGATTAGCTAAACACGTCATTGCTCAGGCGGAGTCACCTAGTGCAG | 10700 fluorescence intensity (a.u.)
AGTGTCACTACTACTGGTACGGTGATGTGTACATCTCGCCCGGAGTCACCTAGTGCAG | 6280 fluorescence intensity (a.u.)
GCCCCAGCTTATCTGTCCACCTCACTCAGTCTCATCCCCACGGAGTCACCTAGTGCAG | 3770 fluorescence intensity (a.u.)
ATGCTCCATGCATGTGTCCAAACATTTGATGTGACGGGAGCGGAGTCACCTAGTGCAG | 3230 fluorescence intensity (a.u.)
GTCCATGTGGCGTGCCACGTAGACAAGACCACGGTCAAACCGGAGTCACCTAGTGCAG | 7810 fluorescence intensity (a.u.)
TCGCTTCGCTTGGAACACCTCCAAAACCCTACTTCCGCCTCGGAGTCACCTAGTGCAG | 3480 fluorescence intensity (a.u.)
GTGGGGCCCATGTGGCCCCATGTGTCATCTTTACTACCGTCGGAGTCACCTAGTGCAG | 5880 fluorescence intensity (a.u.)
ATGAAGACGTGCCAGGTACAAGTGCTGATGAAGAACAGCTCGGAGTCACCTAGTGCAG | 3420 fluorescence intensity (a.u.)
CGCCGTGAGTTGGTCCAGCGCGAAGCCGTCGCAGATGTGGCGGAGTCACCTAGTGCAG | 3780 fluorescence intensity (a.u.)
GCAATTGCAAAGAGCTCAGTTACGTATGAAACACAAAGCTCGGAGTCACCTAGTGCAG | 3310 fluorescence intensity (a.u.)
ACCAGTACGCATAGCATCATGTTGTTCCTGTGAAAGCATCCGGAGTCACCTAGTGCAG | 3460 fluorescence intensity (a.u.)
CCATTCGTCTCCACACGAGCATGAGGGCGCAGACGTCTCACGGAGTCACCTAGTGCAG | 3260 fluorescence intensity (a.u.)
ATAACAATTCAGATCCTCTGTTGACATGTGGAGCCGAGGGCGGAGTCACCTAGTGCAG | 34100 fluorescence intensity (a.u.)
GTCTCGCTCACGCAGTCACCCGCACGCGTGGCGCCCACTCCGGAGTCACCTAGTGCAG | 3840 fluorescence intensity (a.u.)
GTAATACCTCTGCTTTTAATATATATGACGCTATTAATTTCGGAGTCACCTAGTGCAG | 3750 fluorescence intensity (a.u.)
CATTCCGTTTTACAACTCTGTCTATATATTGCGTGTAGCTCGGAGTCACCTAGTGCAG | 3160 fluorescence intensity (a.u.)
GGTAGATGTGTAGCAAATCCAAAATAAAATCCACGAGGCACGGAGTCACCTAGTGCAG | 3630 fluorescence intensity (a.u.)
TCACGGTCACCTGGGATGCCGGGACCCACCCTTGTCATCGCGGAGTCACCTAGTGCAG | 3350 fluorescence intensity (a.u.)
CGCCGTCACCGACGCGTGGGCCCGGGGTGGCTGTCCCCACCGGAGTCACCTAGTGCAG | 3660 fluorescence intensity (a.u.)
AAACGGGCTGACTCATCATCACTCATCCAATTCCCATCCCCGGAGTCACCTAGTGCAG | 15100 fluorescence intensity (a.u.)
AGCTCACCGCATTGTAAAGGCCCTTACTAATCTTAGCAAGCGGAGTCACCTAGTGCAG | 40300 fluorescence intensity (a.u.)
TGAGTCCGTTTCCATACGCGCCATTGCACGTCACTGCGATCGGAGTCACCTAGTGCAG | 23800 fluorescence intensity (a.u.)
AAACTCGACGCGACGTGGCAGGACGACTCACGATGAGCCGCGGAGTCACCTAGTGCAG | 6500 fluorescence intensity (a.u.)
AAACGGCTTATATGTCACCAGTTACACTGGCCAGTACCTCCGGAGTCACCTAGTGCAG | 3680 fluorescence intensity (a.u.)

Sequence | binding signal
TCCGTCGCGATTCGCCACCTCGCCCTCGTCTCGTTTTAGCCGGAGTCACCTAGTGCAG | 3450 fluorescence intensity (a.u.)
GAAAAGTACACGTCACGTCCATGTGGTATTGCCACATCAGCGGAGTCACCTAGTGCAG | 39000 fluorescence intensity (a.u.)
TATATTTGTGGATGTGTTCTAGTGTTCTAACGGATGATGGCGGAGTCACCTAGTGCAG | 7880 fluorescence intensity (a.u.)
GCAACATGATGCTCCACCGCAACCTCGGCAACCTCAATGCCGGAGTCACCTAGTGCAG | 3160 fluorescence intensity (a.u.)
AAAGAGTGATGACGTGGTATATGACACGTGGATCTCACGCCGGAGTCACCTAGTGCAG | 28100 fluorescence intensity (a.u.)
GATCGAGCGGCAGGCCAGCAGTAACCTGGCCGAGAAGTTGCGGAGTCACCTAGTGCAG | 64500 fluorescence intensity (a.u.)
GACTAATCTGCAAAGCTTTCCACCAGGCCAGGTTGGCTGGCGGAGTCACCTAGTGCAG | 17800 fluorescence intensity (a.u.)
TGGGACGCCGTACACTCCCTCAGCAGCCGCCTCGCATTCTCGGAGTCACCTAGTGCAG | 3730 fluorescence intensity (a.u.)
GACTCCAACTAAGCCCAGAAGTTCTATTCTATCTGAATAACGGAGTCACCTAGTGCAG | 33400 fluorescence intensity (a.u.)
AACCAGAGAAACCTGAGGCACCACCATCACCACCACCGCCCGGAGTCACCTAGTGCAG | 3840 fluorescence intensity (a.u.)
TCATTGGGAGGAGGTGATGTCAACGGGCCAAGTCAGAAAGCGGAGTCACCTAGTGCAG | 7020 fluorescence intensity (a.u.)
AGGGATGGAGGTGACGACTCTGTGGCCTCATCCTGTTGGCCGGAGTCACCTAGTGCAG | 3780 fluorescence intensity (a.u.)
GAAAGAATGTTTATCTTAGAAAGTATAGTGTGCCACGCAACGGAGTCACCTAGTGCAG | 4260 fluorescence intensity (a.u.)
TTCGAAAGTCAATTTGCATTTGACAATGGCAGATACGGATCGGAGTCACCTAGTGCAG | 3370 fluorescence intensity (a.u.)
GGCGCGGCGCGGCGCGGCGTGGCGTCTCGTCTCGACCCATCGGAGTCACCTAGTGCAG | 3570 fluorescence intensity (a.u.)
ATCCACGTCATCCATGACATGGCCTCAATGTTTTCACACACGGAGTCACCTAGTGCAG | 18000 fluorescence intensity (a.u.)
GCCAAGCCAAACCAATCCAAGCCAAGCCAAATGAATGATTCGGAGTCACCTAGTGCAG | 3150 fluorescence intensity (a.u.)
AATTAGGCTTAAAAGACTCGTCACATAATTTACACGCAATCGGAGTCACCTAGTGCAG | 3530 fluorescence intensity (a.u.)
CAATTCCGACGAAATCCGGTCGGATTTCACGAAATTTCGACGGAGTCACCTAGTGCAG | 20600 fluorescence intensity (a.u.)
ATATTGCAGAAACAAACACATCAGGTGACGTTAGTTCAAACGGAGTCACCTAGTGCAG | 4280 fluorescence intensity (a.u.)
ATCGTCATGCGCACGTGGCAGTTTCAACGTAGCCACGCCCCGGAGTCACCTAGTGCAG | 9640 fluorescence intensity (a.u.)
TTAAAGAAATGGTTGGTGCTGCTCCGACTCCCTGTTTCCTCGGAGTCACCTAGTGCAG | 16200 fluorescence intensity (a.u.)
AGTTTGCTGCCCACTTCAGTAGGTTACAATACAATTATACCGGAGTCACCTAGTGCAG | 65300 fluorescence intensity (a.u.)
TCTGTAGTACTCCACATCATACGCTGGCTGGACGTCATTACGGAGTCACCTAGTGCAG | 6180 fluorescence intensity (a.u.)
ATGATCAGATACACACTCTGGCTTGGCTTGTAGCTGCAACCGGAGTCACCTAGTGCAG | 50400 fluorescence intensity (a.u.)
GAATATCTACAGATAGAAAAGATGCATCATCAGCTTGTCTCGGAGTCACCTAGTGCAG | 3540 fluorescence intensity (a.u.)
GTGGGTGGTTGGTGGTGGTGGTGGTGGTGGTGATCTTTGGCGGAGTCACCTAGTGCAG | 4920 fluorescence intensity (a.u.)

2 neighbouring entries from above, for reference:
Sequence | binding signal
GACTAATCTGCAAAGCTTTCCACCAGGCCAGGTTGGCTGGCGGAGTCACCTAGTGCAG | 17800 fluorescence intensity (a.u.)
TGGGACGCCGTACACTCCCTCAGCAGCCGCCTCGCATTCTCGGAGTCACCTAGTGCAG | 3730 fluorescence intensity (a.u.)

Source: paper PMC7819943, “Rice protein-binding microarrays: a tool to detect cis-acting elements near promoter regions in rice”
